How the values were obtained:
Conditions in all cases: read-out: IC50, anti-proliferative
H1650 (lung) = test: Tumor cell growth in culture, H1650; type: cell-based, human
Text: (§1) The effect of the tricylic (dibenzazapine) antidepressant, chloripramine on growth of certain tumor cell lines measured in cell culture.

ASPC1 (pancreatic) = test: Tumor cell growth in culture, ASPC1; type: cell-based
Text: as §1

MiaPaca2 (pancreatic) = test: Tumor cell growth in culture, MiaPaca2; type: cell-based
Text: as §1

Panc1 (pancreatic) = test: Tumor cell growth in culture, Panc1; type: cell-based
Text: as §1

IC50 (H1650 (lung)): ~40 µM | IC50 (ASPC1 (pancreatic)): 23 µM | IC50 (MiaPaca2 (pancreatic)): 17 µM | IC50 (Panc1 (pancreatic)): 16 µM
SMILES: CN(C)CCCN1c2ccccc2CCc2ccc(Cl)cc21 [Chlorimpramine]
